Some of the results follow.
What was measured:
Test in all cases: log2 fold change, soluble protein after heating vs DMSO (PISA); higher = thermal stabilisation; K562 lysate, 10 uM; active = over 0.2 and 3.5 SD of the protein, either way, in both replicates (recomputed)
alvocidib = compound: CN1CC[C@H](c2c(O)cc(O)c3c(=O)cc(-c4ccccc4Cl)oc23)[C@H](O)C1 [alvocidib]
In short: (§1)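 Pellets of K562 cells were dounce-homogenised in PBS pH 7.4 with 1 mM MgCl2, and the crude extract was held at 1 mg/mL protein for a 30 min treatment with 10 μM compound. Aliquots were heated for 3 min over 48°C-58°C and pooled before NP-40 was added to 0.5% at 4°C. The supernatant from 21,000xg for 90 min was quantified by TMTpro 16plex LC-MS/MS with channel sums equalised. Values are reported from duplicates as log-two fold change in thermal stability relative to solvent controls.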

Sequences of proteins named here, by UniProt entry; tags and fusion partners are left off. A change or cut given only in a name is not applied to a line headed by its entry.
UniProt Q86VZ5: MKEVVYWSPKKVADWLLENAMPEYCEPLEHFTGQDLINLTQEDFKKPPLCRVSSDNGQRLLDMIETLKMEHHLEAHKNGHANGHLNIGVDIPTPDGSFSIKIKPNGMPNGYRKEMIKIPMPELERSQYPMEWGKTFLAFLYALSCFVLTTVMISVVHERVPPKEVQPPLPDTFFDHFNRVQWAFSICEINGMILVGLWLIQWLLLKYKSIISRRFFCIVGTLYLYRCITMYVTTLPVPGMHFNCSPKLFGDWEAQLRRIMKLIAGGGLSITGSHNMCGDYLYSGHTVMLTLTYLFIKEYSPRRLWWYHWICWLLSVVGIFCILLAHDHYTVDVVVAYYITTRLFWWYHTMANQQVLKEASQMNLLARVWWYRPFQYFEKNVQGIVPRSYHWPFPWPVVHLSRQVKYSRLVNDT
UniProt Q96EQ0: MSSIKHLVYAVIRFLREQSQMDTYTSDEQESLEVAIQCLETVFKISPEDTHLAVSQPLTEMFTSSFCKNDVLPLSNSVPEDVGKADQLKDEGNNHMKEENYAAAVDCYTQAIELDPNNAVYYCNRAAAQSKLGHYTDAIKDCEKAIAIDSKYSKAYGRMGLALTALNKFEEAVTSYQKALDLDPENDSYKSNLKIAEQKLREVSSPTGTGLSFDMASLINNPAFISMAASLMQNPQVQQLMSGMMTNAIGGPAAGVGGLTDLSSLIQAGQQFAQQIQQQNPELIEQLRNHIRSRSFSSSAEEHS
UniProt Q86XK3: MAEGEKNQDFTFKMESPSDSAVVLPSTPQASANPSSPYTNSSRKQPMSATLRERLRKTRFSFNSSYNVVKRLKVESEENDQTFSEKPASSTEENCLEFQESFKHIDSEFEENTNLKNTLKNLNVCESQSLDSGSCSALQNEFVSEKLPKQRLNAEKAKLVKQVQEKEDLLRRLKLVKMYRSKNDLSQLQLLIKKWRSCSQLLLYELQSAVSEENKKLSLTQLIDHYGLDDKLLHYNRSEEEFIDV
UniProt P55011: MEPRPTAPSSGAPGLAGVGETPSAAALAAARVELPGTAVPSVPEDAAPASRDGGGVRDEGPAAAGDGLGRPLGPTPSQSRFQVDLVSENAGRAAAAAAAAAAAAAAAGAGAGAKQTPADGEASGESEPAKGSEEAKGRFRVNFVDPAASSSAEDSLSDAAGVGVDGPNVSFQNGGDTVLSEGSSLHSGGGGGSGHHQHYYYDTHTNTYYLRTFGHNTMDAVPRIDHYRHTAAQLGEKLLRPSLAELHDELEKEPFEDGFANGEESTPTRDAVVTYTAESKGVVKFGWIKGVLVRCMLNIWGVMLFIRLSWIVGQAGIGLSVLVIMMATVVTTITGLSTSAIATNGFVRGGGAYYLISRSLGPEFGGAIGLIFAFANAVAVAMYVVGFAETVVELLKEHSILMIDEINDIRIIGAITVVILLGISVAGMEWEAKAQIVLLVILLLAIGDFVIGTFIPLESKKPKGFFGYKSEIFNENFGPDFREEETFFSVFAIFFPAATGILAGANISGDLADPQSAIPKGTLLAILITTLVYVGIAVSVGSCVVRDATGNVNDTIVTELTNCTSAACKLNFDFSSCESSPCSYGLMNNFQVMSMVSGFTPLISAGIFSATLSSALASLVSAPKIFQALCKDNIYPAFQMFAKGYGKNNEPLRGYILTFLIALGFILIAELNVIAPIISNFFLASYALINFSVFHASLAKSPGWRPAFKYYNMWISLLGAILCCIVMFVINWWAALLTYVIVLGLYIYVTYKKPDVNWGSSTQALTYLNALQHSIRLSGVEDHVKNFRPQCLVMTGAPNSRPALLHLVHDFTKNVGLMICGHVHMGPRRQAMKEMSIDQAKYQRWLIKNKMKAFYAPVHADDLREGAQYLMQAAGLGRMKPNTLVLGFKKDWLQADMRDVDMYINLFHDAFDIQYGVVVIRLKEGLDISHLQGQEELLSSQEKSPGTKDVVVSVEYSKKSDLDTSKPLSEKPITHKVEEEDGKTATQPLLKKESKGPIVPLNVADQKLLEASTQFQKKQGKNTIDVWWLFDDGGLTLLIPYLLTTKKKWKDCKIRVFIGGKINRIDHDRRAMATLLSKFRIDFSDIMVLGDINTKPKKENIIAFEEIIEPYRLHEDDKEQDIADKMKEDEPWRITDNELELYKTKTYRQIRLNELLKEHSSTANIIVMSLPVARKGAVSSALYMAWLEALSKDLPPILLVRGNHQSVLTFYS
UniProt Q9NP50: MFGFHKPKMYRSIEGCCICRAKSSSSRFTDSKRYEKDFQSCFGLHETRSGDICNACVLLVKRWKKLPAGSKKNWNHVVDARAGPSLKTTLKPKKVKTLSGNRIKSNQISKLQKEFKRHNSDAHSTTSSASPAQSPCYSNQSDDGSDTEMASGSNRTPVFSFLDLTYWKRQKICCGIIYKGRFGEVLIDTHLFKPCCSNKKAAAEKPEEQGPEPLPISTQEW
UniProt Q6PI26: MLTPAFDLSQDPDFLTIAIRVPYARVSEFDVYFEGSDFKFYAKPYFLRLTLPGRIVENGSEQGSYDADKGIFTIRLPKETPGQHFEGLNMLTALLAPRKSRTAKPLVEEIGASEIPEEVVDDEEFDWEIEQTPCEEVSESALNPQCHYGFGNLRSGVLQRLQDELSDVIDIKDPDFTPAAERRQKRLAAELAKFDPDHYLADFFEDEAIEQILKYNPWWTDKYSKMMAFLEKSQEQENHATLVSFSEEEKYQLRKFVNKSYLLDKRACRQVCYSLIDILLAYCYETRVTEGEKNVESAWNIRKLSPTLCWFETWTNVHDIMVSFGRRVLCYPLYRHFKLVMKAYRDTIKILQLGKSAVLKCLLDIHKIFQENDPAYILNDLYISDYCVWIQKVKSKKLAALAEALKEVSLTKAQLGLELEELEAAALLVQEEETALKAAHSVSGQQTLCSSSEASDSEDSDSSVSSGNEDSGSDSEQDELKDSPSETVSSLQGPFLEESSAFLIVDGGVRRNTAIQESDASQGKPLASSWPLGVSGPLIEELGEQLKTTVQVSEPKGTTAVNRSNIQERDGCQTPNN
UniProt Q9UPS6, whole entry, looked up: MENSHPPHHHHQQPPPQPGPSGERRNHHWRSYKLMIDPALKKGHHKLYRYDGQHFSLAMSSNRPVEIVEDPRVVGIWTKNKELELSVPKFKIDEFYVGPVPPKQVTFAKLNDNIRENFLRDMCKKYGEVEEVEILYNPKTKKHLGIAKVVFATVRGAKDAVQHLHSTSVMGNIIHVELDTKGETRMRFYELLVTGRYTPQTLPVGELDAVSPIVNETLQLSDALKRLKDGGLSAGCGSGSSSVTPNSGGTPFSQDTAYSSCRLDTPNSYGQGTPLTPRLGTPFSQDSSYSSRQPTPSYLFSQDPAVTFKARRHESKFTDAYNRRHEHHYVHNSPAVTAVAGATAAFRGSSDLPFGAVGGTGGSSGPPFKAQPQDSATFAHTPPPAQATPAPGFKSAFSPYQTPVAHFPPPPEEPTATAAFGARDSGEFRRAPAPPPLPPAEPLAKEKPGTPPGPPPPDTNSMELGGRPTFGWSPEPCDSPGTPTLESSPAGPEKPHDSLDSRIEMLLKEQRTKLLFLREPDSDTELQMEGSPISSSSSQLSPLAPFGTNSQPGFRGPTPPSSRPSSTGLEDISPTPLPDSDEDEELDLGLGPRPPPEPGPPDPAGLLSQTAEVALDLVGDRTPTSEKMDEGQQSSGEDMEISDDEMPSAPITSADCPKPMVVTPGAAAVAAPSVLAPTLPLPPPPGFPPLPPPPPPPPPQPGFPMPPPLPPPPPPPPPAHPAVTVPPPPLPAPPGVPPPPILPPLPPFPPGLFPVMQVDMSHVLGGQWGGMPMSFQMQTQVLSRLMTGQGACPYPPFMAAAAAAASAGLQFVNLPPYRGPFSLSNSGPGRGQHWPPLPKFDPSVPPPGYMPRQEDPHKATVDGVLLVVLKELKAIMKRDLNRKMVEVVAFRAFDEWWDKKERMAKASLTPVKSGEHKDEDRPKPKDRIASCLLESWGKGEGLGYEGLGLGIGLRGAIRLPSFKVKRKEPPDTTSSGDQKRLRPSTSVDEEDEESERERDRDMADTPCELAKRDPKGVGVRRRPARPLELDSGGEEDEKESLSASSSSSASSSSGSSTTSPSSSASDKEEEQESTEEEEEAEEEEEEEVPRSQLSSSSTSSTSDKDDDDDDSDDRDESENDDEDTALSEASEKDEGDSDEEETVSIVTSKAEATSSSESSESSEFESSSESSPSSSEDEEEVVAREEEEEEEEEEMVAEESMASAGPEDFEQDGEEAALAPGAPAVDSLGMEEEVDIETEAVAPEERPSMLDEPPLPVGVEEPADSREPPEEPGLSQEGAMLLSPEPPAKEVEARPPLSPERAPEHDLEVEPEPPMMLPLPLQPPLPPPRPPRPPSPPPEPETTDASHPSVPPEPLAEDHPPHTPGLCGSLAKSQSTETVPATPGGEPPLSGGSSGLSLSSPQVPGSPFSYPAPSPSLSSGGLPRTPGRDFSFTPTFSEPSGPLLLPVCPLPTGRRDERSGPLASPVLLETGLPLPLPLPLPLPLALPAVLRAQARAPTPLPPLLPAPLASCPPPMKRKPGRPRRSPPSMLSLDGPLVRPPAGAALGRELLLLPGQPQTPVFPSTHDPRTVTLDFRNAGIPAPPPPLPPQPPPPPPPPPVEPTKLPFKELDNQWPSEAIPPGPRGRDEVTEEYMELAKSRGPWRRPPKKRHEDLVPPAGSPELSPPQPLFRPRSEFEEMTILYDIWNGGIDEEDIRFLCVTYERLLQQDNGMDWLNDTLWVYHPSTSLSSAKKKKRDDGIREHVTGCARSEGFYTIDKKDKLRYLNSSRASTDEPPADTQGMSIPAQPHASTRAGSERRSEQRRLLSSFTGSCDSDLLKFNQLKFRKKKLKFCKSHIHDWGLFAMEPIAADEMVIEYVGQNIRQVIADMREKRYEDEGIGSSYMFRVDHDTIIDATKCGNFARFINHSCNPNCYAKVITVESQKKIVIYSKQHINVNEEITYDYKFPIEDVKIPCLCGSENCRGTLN
UniProt Q587I9: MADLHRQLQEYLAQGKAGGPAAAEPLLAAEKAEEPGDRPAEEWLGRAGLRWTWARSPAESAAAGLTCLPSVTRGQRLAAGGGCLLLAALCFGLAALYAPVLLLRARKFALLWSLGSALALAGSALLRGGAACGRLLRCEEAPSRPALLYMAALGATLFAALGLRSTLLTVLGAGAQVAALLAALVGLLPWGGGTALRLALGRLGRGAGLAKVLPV
UniProt Q9Y3L3: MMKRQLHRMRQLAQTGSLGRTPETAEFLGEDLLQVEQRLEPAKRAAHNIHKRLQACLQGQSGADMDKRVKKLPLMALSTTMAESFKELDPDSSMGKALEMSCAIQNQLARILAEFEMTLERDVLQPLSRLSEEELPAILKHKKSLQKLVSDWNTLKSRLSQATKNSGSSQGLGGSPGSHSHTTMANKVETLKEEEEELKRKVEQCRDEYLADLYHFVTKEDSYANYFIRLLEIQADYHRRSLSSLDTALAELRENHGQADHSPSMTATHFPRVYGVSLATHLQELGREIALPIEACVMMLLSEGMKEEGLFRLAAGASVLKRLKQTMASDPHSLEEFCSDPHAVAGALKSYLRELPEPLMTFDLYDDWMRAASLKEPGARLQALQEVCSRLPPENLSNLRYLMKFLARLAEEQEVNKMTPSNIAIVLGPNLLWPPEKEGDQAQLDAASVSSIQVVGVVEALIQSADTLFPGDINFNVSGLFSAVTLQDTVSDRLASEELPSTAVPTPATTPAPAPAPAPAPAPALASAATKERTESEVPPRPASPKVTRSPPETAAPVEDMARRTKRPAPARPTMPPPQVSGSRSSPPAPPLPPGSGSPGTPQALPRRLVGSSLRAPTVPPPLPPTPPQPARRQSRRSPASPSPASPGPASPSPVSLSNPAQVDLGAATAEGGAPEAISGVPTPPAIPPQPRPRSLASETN
UniProt O14796: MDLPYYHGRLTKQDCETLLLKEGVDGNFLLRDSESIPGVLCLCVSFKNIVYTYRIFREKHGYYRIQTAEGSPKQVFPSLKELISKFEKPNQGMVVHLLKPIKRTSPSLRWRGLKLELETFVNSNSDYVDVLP
UniProt Q9HAT2: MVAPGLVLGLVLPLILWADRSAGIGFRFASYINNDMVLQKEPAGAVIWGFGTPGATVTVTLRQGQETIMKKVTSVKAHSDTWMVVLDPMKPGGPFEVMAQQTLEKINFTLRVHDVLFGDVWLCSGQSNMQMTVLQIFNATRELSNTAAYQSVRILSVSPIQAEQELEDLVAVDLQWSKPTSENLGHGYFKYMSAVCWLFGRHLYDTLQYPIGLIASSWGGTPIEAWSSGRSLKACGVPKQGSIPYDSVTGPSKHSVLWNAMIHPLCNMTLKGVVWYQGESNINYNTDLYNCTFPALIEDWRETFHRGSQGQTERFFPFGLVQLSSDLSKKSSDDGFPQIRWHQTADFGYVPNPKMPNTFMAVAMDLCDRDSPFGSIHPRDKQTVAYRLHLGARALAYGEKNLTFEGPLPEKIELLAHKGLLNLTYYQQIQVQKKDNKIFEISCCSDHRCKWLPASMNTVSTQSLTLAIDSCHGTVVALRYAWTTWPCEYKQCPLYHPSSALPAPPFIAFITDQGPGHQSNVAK

Tubastatin A = compound: CN1CCc2c(c3ccccc3n2Cc2ccc(C(=O)NO)cc2)C1 [Tubastatin A]
In short: as §1

[1] = compound: CNC(=O)C1=CC=CC=C1NC2=NC(=NC=C2Cl)NC3=C(C=C(C=C3)N4CCOCC4)OC
In short: as §1

defactinib = compound: CNC(=O)c1ccc(Nc2ncc(C(F)(F)F)c(NCc3nccnc3N(C)S(C)(=O)=O)n2)cc1 [defactinib]
In short: as §1

[2] = compound: CNc1nc(-c2ccc3c(N)n[nH]c3c2)cc(N2C[C@@H](C(=O)NC3CCCCC3)CC[C@H]2C)n1
In short: as §1

encorafenib = compound: COC(=O)N[C@@H](C)CNc1nccc(-c2cn(C(C)C)nc2-c2cc(Cl)cc(NS(C)(=O)=O)c2F)n1 [encorafenib]
In short: as §1

[3] = compound: COC(=O)[C@H](CCSC)NC(=O)C1=C(C=C(C=C1)NC[C@H](CS)N)C2=CC=CC=C2
In short: as §1

alisertib = compound: COc1cc(Nc2ncc3c(n2)-c2ccc(Cl)cc2C(c2c(F)cccc2OC)=NC3)ccc1C(=O)O [alisertib]
In short: as §1

[4] = compound: COc1cc2nc(-c3cc(F)ccc3O)nc(N[C@@H]3CNC[C@H]3C(C)(C)O)c2cc1OC
In short: as §1

gefitinib = compound: COc1cc2ncnc(Nc3ccc(F)c(Cl)c3)c2cc1OCCCN1CCOCC1 [gefitinib]
In short: as §1

Measured: log2 fold change

SGMS1 (UniProt Q86VZ5)
inactive: alvocidib -0.058 | Tubastatin A 0.035 | [1] 0.048 | defactinib -0.056 | [2] -0.057 | encorafenib 0.036 | [3] -0.005 | alisertib 0.001 | [4] 0.172 | gefitinib -0.014

SERPINB6, A0A087X1N8
inactive: alvocidib -0.013 | Tubastatin A 0.031 | [1] 0.003 | defactinib 0.021 | [2] 0.001 | encorafenib -0.033 | [3] -0.041 | alisertib -0.011 | [4] -0.011 | gefitinib -0.017

SGTB (UniProt Q96EQ0)
inactive: alvocidib 0.087 | Tubastatin A 0.028 | [1] 0 | defactinib 0.026 | [2] -0.063 | encorafenib -0.016 | [3] -0.028 | alisertib -0.006 | [4] -0.026 | gefitinib 0.011

SERPINB1 (UniProt P30740)
inactive: alvocidib 0.003 | Tubastatin A 0.016 | [1] -0.014 | defactinib -0.015 | [2] 0.014 | encorafenib -0.027 | [3] 0.016 | alisertib 0.006 | [4] -0.01 | gefitinib -0.026

SIN3A (UniProt Q96ST3)
inactive: alvocidib -0.006 | Tubastatin A -0.074 | [1] 0.004 | defactinib 0.013 | [2] 0.013 | encorafenib 0.01 | [3] 0.062 | alisertib 0.022 | [4] -0.001 | gefitinib 0.015

SFR1 isoform 2 (UniProt Q86XK3)
inactive: alvocidib -0.014 | Tubastatin A -0.003 | [1] -0.009 | defactinib -0.155 | [2] -0.005 | encorafenib 0.014 | [3] -0.007 | alisertib 0.004 | [4] -0.007 | gefitinib -0.03

SKP2 (UniProt Q13309)
inactive: alvocidib -0.048 | Tubastatin A -0.077 | [1] 0.044 | defactinib 0.189 | [2] 0.03 | encorafenib -0.053 | [3] 0.085 | alisertib 0.01 | [4] 0.173 | gefitinib 0.058

SF3A1 (UniProt Q15459)
inactive: alvocidib -0.027 | Tubastatin A 0.02 | [1] -0.023 | defactinib 0.004 | [2] 0.004 | encorafenib 0.012 | [3] 0.006 | alisertib -0.006 | [4] 0.004 | gefitinib -0.009

SLC12A2 (UniProt P55011)
inactive: alvocidib 0.05 | Tubastatin A 0.046 | [1] -0.044 | defactinib 0.018 | [2] -0.026 | encorafenib 0.014 | [3] 0.059 | alisertib -0.001 | [4] 0.006 | gefitinib 0.035

SIL1 (UniProt Q9H173)
inactive: alvocidib 0.007 | Tubastatin A 0.049 | [1] -0.024 | defactinib -0.014 | [2] 0.017 | encorafenib 0.024 | [3] -0.004 | alisertib 0.006 | [4] 0.028 | gefitinib 0.057

Quoted at random: 2 records from the list, in no set order.
SIL1 (UniProt Q9H173)
inactive: alvocidib 0.007 | Tubastatin A 0.049 | [1] -0.024 | defactinib -0.014 | [2] 0.017 | encorafenib 0.024 | [3] -0.004 | alisertib 0.006 | [4] 0.028 | gefitinib 0.057

SKP2 (UniProt Q13309)
inactive: alvocidib -0.048 | Tubastatin A -0.077 | [1] 0.044 | defactinib 0.189 | [2] 0.03 | encorafenib -0.053 | [3] 0.085 | alisertib 0.01 | [4] 0.173 | gefitinib 0.058

Next part.

SINHCAF (UniProt Q9NP50)
inactive: alvocidib 0.14 | Tubastatin A -0.067 | [1] -0.004 | defactinib 0.154 | [2] -0.317 | alisertib 0.013 | gefitinib 0.062

SHQ1 (UniProt Q6PI26)
inactive: alvocidib 0.048 | Tubastatin A 0.082 | [1] -0.008 | [2] -0.235 | alisertib 0.027 | gefitinib 0.074

SETD1B (UniProt Q9UPS6)
inactive: alvocidib -0.093 | defactinib -0.009 | [2] 0.132

SFT2D3 (UniProt Q587I9)
inactive: alvocidib -0.095 | Tubastatin A 0.137 | [1] -0.065 | [2] -0.074 | encorafenib 0.055 | [3] -0.063 | alisertib -0.044 | [4] -0.015 | gefitinib -0.088

SIGMAR1 (UniProt Q99720)
inactive: alvocidib -0.123 | Tubastatin A 0 | [1] 0.022 | defactinib -0.028 | [2] 0.107 | encorafenib 0.066 | [3] -0.015 | alisertib 0.01 | [4] 0.044 | gefitinib -0.033

SF3B2 (UniProt E9PJ04)
inactive: alvocidib 0.082 | [1] -0.056 | alisertib 0.081 | [4] 0.025 | gefitinib -0.09

SFXN4 isoform 3 (UniProt Q6P4A7)
inactive: alvocidib -0.202 | Tubastatin A 0.084 | [1] -0.047 | defactinib -0.057 | encorafenib 0.076 | [3] -0.173 | alisertib 0.477 | gefitinib 0.217

SH2B1 (UniProt Q9NRF2)
inactive: alvocidib 0.049 | Tubastatin A -0.108 | [1] -0.121 | [2] 0.086 | alisertib -0.049 | [4] 0.048 | gefitinib 0.034

SIAH2 (UniProt O43255)
inactive: alvocidib 0.002 | [1] 0.073 | defactinib 0.043 | alisertib -0.002 | [4] 0.091 | gefitinib -0.093

SLC18B1 (UniProt Q6NT16)
inactive: alvocidib -0.084 | Tubastatin A 0.107 | [1] 0.036 | defactinib 0.003 | alisertib 0.015 | [4] 0.026 | gefitinib 0.062

SH3BP1 (UniProt Q9Y3L3)
inactive: alvocidib -0.039 | Tubastatin A 0.022 | [1] -0.019 | defactinib 0.021 | [2] -0.011 | encorafenib 0.017 | [3] -0.005 | alisertib -0.005 | [4] 0.01 | gefitinib -0.001

SLC22A18 (UniProt Q96BI1)
inactive: alvocidib -0.035 | [1] 0.052 | defactinib -0.076 | encorafenib 0.009 | [3] -0.013 | [4] -0.077

SERPINB5 (UniProt P36952)
inactive: alvocidib -0.016 | Tubastatin A 0.376 | [1] -0.124 | [2] -0.121 | alisertib -0.174 | [4] -0.103 | gefitinib 0.182

SH2D1B (UniProt O14796)
inactive: alvocidib 0.017 | Tubastatin A -0.299 | defactinib 0.097 | [2] -0.065 | encorafenib 0.12 | [3] -0.098

SERPINA1 (UniProt P01009)
inactive: alvocidib 0.05 | Tubastatin A 0.078 | [2] -0.181

SIAE (UniProt Q9HAT2)
inactive: alvocidib 0.043 | Tubastatin A 0.105 | encorafenib 0.07 | [3] -0.014

SH3KBP1 (UniProt Q96B97)
inactive: alvocidib -0.056 | Tubastatin A 0.135 | [1] -0.008 | [2] 0.007 | encorafenib -0.001 | [3] 0.136 | [4] 0.111

SLC12A9 (UniProt Q9BXP2)
inactive: alvocidib -0.017 | Tubastatin A 0.214 | [1] 0.007 | defactinib 0.024 | [2] 0.067 | alisertib 0.048 | [4] -0.012 | gefitinib 0.068

SH3BP2 isoform 4 (UniProt P78314)
inactive: alvocidib -0.023 | Tubastatin A 0.026 | [1] 0.03 | defactinib -0.054 | [2] 0.099 | [4] 0.053

SLC10A3 (UniProt P09131)
inactive: alvocidib 0.019 | defactinib 0.114 | encorafenib -0.014 | [3] 0.052

SLC15A4 (UniProt Q8N697)
inactive: alvocidib 0.186 | [1] 0.042 | defactinib -0.032 | [2] -0.015 | encorafenib -0.092 | [3] 0.021 | [4] -0.005

SIK3 (UniProt Q9Y2K2)
inactive: alvocidib 0.187 | Tubastatin A 0.161 | [1] -0.011 | [2] 0.056 | encorafenib -0.164 | [3] -0.332 | alisertib -0.064 | gefitinib 0.123

SKIL (UniProt P12757)
inactive: alvocidib 0.129 | Tubastatin A 0.195 | [1] 0.129 | defactinib -0.153 | encorafenib -0.085 | [3] 0.093

From the supplement of paper PMC10849652
